Test results as given in publication PMC6250677.
These are yes or no findings as the source states them, for the method shown. Binding seen in cells or lysates may run through a third protein. Some binding calls cover weakened binding; strength is not graded here. One block for each substance: values may come before it.

The chains behind the UniProt entries cited, without tags or fusion partners.
UniProt P02340: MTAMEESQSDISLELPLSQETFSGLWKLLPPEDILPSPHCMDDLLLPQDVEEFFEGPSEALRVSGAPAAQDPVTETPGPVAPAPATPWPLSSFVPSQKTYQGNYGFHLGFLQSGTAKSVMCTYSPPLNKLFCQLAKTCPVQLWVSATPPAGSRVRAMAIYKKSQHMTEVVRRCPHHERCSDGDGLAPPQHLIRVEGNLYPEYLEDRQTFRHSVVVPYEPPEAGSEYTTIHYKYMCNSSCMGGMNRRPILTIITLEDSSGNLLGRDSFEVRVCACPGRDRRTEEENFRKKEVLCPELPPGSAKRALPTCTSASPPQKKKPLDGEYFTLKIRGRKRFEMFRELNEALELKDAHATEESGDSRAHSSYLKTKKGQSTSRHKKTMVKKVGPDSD
UniProt P38532: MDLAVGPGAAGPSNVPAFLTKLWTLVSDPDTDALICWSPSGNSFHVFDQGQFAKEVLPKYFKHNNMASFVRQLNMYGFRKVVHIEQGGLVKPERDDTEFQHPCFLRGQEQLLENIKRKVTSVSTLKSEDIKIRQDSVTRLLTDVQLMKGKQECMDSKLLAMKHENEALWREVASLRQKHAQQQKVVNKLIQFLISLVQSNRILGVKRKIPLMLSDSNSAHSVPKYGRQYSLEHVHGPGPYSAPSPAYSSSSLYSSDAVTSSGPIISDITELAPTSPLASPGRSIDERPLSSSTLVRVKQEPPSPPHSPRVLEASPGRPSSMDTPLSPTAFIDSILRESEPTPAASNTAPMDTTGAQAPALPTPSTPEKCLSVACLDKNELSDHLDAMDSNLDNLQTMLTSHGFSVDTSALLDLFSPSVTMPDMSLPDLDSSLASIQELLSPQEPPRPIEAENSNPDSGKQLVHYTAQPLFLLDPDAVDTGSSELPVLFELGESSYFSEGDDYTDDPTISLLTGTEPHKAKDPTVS
UniProt Q9WTL8: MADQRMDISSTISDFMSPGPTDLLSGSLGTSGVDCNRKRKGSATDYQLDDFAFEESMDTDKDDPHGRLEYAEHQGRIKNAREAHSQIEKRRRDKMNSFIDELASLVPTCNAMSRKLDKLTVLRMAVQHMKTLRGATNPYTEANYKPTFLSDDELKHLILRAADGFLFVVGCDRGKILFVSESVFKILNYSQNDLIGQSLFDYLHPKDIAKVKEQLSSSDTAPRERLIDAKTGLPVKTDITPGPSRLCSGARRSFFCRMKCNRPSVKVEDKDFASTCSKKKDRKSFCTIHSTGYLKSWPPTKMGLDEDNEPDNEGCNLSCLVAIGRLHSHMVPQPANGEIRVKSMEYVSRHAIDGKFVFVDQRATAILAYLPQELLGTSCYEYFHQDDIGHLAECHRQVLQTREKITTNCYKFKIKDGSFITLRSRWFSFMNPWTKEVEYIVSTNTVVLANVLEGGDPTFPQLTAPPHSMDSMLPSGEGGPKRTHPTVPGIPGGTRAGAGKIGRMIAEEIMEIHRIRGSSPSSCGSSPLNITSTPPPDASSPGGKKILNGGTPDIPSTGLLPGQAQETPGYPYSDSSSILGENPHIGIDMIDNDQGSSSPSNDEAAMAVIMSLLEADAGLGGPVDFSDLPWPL

Tests used:
[1] = target: ELucC-fused full-length mouse p53 (split-luciferase probe) (mouse) (UniProt P02340); assay: split reporter; split-luciferase complementation in living U2OS cells after UV irradiation; real-time bioluminescence
[2] = target: ELucC-fused full-length mouse p53 (split-luciferase probe) (mouse) (UniProt P02340); assay: split reporter; split emerald luciferase complementation in living NIH3T3 cells; UV irradiation 2, 5 and 10 J m^-2; real-time bioluminescence
[3] = target: ELuc N-terminal fragment-fused mouse HSF1 (split-luciferase probe) (mouse) (UniProt P38532); assay: split reporter; split-luciferase complementation in living U2OS cells after UV irradiation; real-time bioluminescence
[4] = target: heat-shock factor-1 (HSF1), endogenous in NIH3T3 cells (mouse (endogenous in NIH3T3)) (UniProt P38532); assay: co-IP; endogenous proteins in NIH3T3 lysate (NP-40 lysis buffer: 10 mM Tris-HCl pH 7.4, 150 mM NaCl, 5 mM EDTA, 50 mM NaF, 0.5% NP-40); cells unirradiated or UV irradiated (254 nm, 10 J m^-2), sampled at 2 or 4 h; IP with anti-HSF1, anti-p53 or anti-BMAL1 antibody and protein G-sepharose, 6 h at 4 °C; immunoblot
[5] = target: tumor suppressor p53, endogenous in NIH3T3 cells (mouse (endogenous in NIH3T3)) (UniProt P02340); assay: as above
[6] = target: brain and muscle ARNT-like protein-1 (BMAL1), endogenous in NIH3T3 cells (mouse (endogenous in NIH3T3)) (UniProt Q9WTL8); assay: as above

Substance: ELuc N-terminal fragment-fused mouse HSF1 (split-luciferase probe) (from UniProt P38532 1-525)
- binding [1]: binds
- binding [2]: binds

Substance: brain and muscle ARNT-like protein-1 (BMAL1), endogenous in NIH3T3 cells (from UniProt Q9WTL8 1-632)
- binding [4]: binds

Substance: heat-shock factor-1 (HSF1), endogenous in NIH3T3 cells (from UniProt P38532 1-525)
- binding [5]: binds
- binding [6]: binds

Other lines, results leading:

- binding [3]: binds
Substance: BMAL1 split-luciferase probe (ectopic BMAL1 in U2OS cells) (from UniProt Q9WTL8 1-632)

- binding [4]: binds
Substance: tumor suppressor p53, endogenous in NIH3T3 cells (from UniProt P02340 1-390)
